Measurements reported in PubChem BioAssay AID1259308 (NCATS, 2017)
Purpose: 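Genes whose loss raises luciferase production in HEK293 cells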 (primary screen). System: human HEK293 embryonic kidney cells stably expressing firefly luciferase (HEK-CMV-Luc2-Hygro). Knock-down reagent: single siRNA against human genes, 0.8 pmol siRNA per well. Timing: 72 h. Measurement: 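Reporter luminescence and viable-cell signal on separate replicate plates, given as percent of non-targeting control and median/MAD z-scores, plus per-cell luciferase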. Scale: total luciferase, z-score and total luciferase, % of control: higher = more reporter protein produced. Hit rule: 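An siRNA counts as active if its total luciferase robust z-score exceeds 3; genes with two or more such siRNAs out of three were retested with fresh siRNAs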. Calls: active = raised luciferase; inactive = no rise.
Shown is one part, drawn at random, of about 59,000 reagents. About 1,510 of them (2.6%) were called active. 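Calls use total luciferase alone and ignore viability, so some active siRNAs may act by altering cell number.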 Entries without a mark were called inactive. Reagents against one gene are numbered here. Further read-outs or replicates are left out here. No sequences are given here.

OSBPL7 #1 | total luciferase, z-score = -0.395; total luciferase, % of control = 74
OSBPL7 #2 | total luciferase, z-score = 0.839; total luciferase, % of control = 98.6
OSBPL7 #3 | total luciferase, z-score = -0.776; total luciferase, % of control = 66.5
ATP5MK #1 | total luciferase, z-score = -0.445; total luciferase, % of control = 73
ATP5MK #2 | total luciferase, z-score = -1.17; total luciferase, % of control = 58.7
ATP5MK #3 | total luciferase, z-score = 2.02; total luciferase, % of control = 122
SORBS3 #1 | total luciferase, z-score = 1.73; total luciferase, % of control = 116
SORBS3 #2 | total luciferase, z-score = 0.983; total luciferase, % of control = 101
SORBS3 #3 | total luciferase, z-score = 2.54; total luciferase, % of control = 133
ZNF688 #1 | total luciferase, z-score = 0.185; total luciferase, % of control = 85.6
ZNF688 #2 | total luciferase, z-score = 0.755; total luciferase, % of control = 96.9
ZNF688 #3 | total luciferase, z-score = -0.362; total luciferase, % of control = 74.7
RFC4 #1 | total luciferase, z-score = 0.967; total luciferase, % of control = 101
RFC4 #2 | total luciferase, z-score = -0.594; total luciferase, % of control = 70.1
RFC4 #3 | total luciferase, z-score = 0.382; total luciferase, % of control = 89.5

Targets listed so far whose target name starts with Z or z (3):
ZNF688 #1 | total luciferase, z-score = 0.185; total luciferase, % of control = 85.6
ZNF688 #2 | total luciferase, z-score = 0.755; total luciferase, % of control = 96.9
ZNF688 #3 | total luciferase, z-score = -0.362; total luciferase, % of control = 74.7

Further results follow:
RGS9 #1 | total luciferase, z-score = -0.739; total luciferase, % of control = 67.2
RGS9 #2 | total luciferase, z-score = 1.23; total luciferase, % of control = 106
RGS9 #3 | total luciferase, z-score = -0.157; total luciferase, % of control = 78.8
LOC400756 (retired record) #1 | total luciferase, z-score = -0.098; total luciferase, % of control = 79.9
LOC400756 (retired record) #2 | total luciferase, z-score = -2.79; total luciferase, % of control = 26.5
LOC400756 (retired record) #3 | total luciferase, z-score = -0.176; total luciferase, % of control = 78.4
RPS9 #1 | total luciferase, z-score = -3.05; total luciferase, % of control = 21.3
RPS9 #2 | total luciferase, z-score = -2.52; total luciferase, % of control = 31.7
RPS9 #3 | total luciferase, z-score = -2.26; total luciferase, % of control = 36.9
TMEM216 #1 | total luciferase, z-score = 1.16; total luciferase, % of control = 105
TMEM216 #2 | total luciferase, z-score = 0.589; total luciferase, % of control = 93.6
TMEM216 #3 | total luciferase, z-score = 0.903; total luciferase, % of control = 99.9
UBE2Q1 #1 | total luciferase, z-score = -0.952; total luciferase, % of control = 62.9
UBE2Q1 #2 | total luciferase, z-score = -0.273; total luciferase, % of control = 76.5
UBE2Q1 #3 | total luciferase, z-score = 0.282; total luciferase, % of control = 87.5
CSTF2T #1 | total luciferase, z-score = 1.49; total luciferase, % of control = 112
CSTF2T #2 | total luciferase, z-score = -0.803; total luciferase, % of control = 65.9
CSTF2T #3 | total luciferase, z-score = 2.89; total luciferase, % of control = 139
